{"source": "patent US20180311342A1", "about": "“IMMUNOSTIMULATING AGENT” (AJINOMOTO CO., INC., priority 2017, published 2018)", "tested_on": "anti-OVA-specific IgG1 and IgG2a subclass antibody / anti-OVA-specific IgE antibody", "test": "Effective Index: index for adjuvant enhancing antibody production and not inducing allergy (IgG1 or IgG2a / IgE, relative to Addavax = 1.0)", "format": "in vivo, BALB/c mice", "conditions": "after secondary immunization, compound in 5% αCD-added saline; for Effective Index: IgG1/IgE and IgG2a/IgE production amounts relative to Addavax administration group (1.0); for Effective Index of IgG1: IgG1 production amount/IgE production amount relative to Addavax administration group (1.0); for Effective Index of IgG2a: IgG2a production amount/IgE production amount relative to Addavax administration group (1.0)", "experimental": "The serum samples obtained in Experimental Example 1 were evaluated for utilizability as an adjuvant to cause enhancement of antibody production by each compound and not induce allergy based on the following index (Effective Index). Whether each compound can be used as an adjuvant to cause enhancement of antibody production and not induce allergy was also evaluated in the same manner in the following Experimental Examples 2-10.\nIt is a problem that Addavax™ potentiates antigen-specific antibody production but induces allergy. Therefore, the index for adjuvant not inducing allergy (Effective Index) was defined as follows, and an index of each administration group in Experimental Examples 1-10 was calculated. That is, a value obtained by dividing mean of the concentrations of anti-OVA-specific IgG1 subclass antibody and anti-OVA-specific IgG2a subclass antibody of each group by mean of anti-OVA-specific IgE antibody concentration of each group was relatively compared with a value obtained by dividing mean of the concentrations of anti-OVA-specific IgG1 subclass antibody and anti-OVA-specific IgG2a subclass antibody of Addavax™ administration group by mean of anti-OVA-specific IgE antibody concentration of Addavax™ administration group as 1.0.", "note": "Structures can show the parent of a compound that is named as a salt. Some results were stated once for a whole list of compounds, not compound by compound.", "data": [{"smiles": "CCCCCCCCCCCCCCCCCC(=O)N[C@@H](CCCNC(=N)N)C(=O)NCCCCCCCCCCCC.Cl", "note": "[SZ137, N-[(1S)-1-(dodecylcarbamoyl)-4-guanidino-butyl]octadecanamide hydrochloride]", "values": [{"measurement": "Effective Index", "result": "> 1.0"}]}, {"smiles": "CCCCCCCCCCCCCCCCCCCCCC(=O)N[C@@H](CCCNC(=N)N)C(=O)NCCCCCCCCCCCC.Cl", "note": "[SZ138, N-[(1S)-1-(dodecylcarbamoyl)-4-guanidino-butyl]docosanamide hydrochloride]", "values": [{"measurement": "Effective Index", "result": "> 1.0"}]}, {"smiles": "CCCCCCCCCCCCCCCCCCCCCC(=O)N[C@@H](CC(C)C)C(=O)NCCCCCCCCCCC", "note": "[SZ142, N-[(1S)-3-methyl-1-(undecylcarbamoyl)butyl]docosanamide]", "values": [{"measurement": "Effective Index", "result": "> 1.0"}]}, {"smiles": "CCCCCCCCCCCCCCCC(=O)N[C@@H](CC(C)C)C(=O)NCCCCCCCCCCCC", "note": "[SZ144, N-[(1S)-1-(dodecylcarbamoyl)-3-methyl-butyl]hexadecanamide]", "values": [{"measurement": "Effective Index", "result": "> 1.0"}]}, {"smiles": "CCCCCCCCCCCCCCCCCCCCCC(=O)NCC(C)(C)C(=O)NCCCCCCCCCCCC", "note": "[SZ148, N-[3-(dodecylamino)-2,2-dimethyl-3-oxo-propyl]docosanamide]", "values": [{"measurement": "Effective Index", "result": "> 1.0"}]}, {"smiles": "CCCCCCCC/C=C/CCCCCCCC(=O)N[C@@H](CCCNC(=N)N)C(=O)NCCCCCCCCCCCC.Cl", "note": "[SZ161, (E)-N-[(1S)-1-(dodecylcarbamoyl)-4-guanidino-butyl]octadeca-9-enamide hydrochloride]", "values": [{"measurement": "Effective Index", "result": "> 1.0"}]}, {"smiles": "CCCCCCCCCCCCCCCCNC(=O)N[C@@H](CCCNC(=N)N)C(=O)NCCCCCC.Cl", "note": "[SZ168, (2S)-5-guanidino-2-(hexadecylcarbamoylamino)-N-hexyl-pentanamide hydrochloride]", "values": [{"measurement": "Effective Index", "result": "> 1.0"}]}, {"smiles": "CCCCCCCCCCCCCCCCCCCC(=O)N[C@@H](CCCNC(=N)N)C(=O)NCCCCCCCCCCCC.Cl", "note": "[SZ180, N-[(1S)-1-(dodecylcarbamoyl)-4-guanidino-butyl]icosanamide hydrochloride]", "values": [{"measurement": "Effective Index of IgG1", "result": "> 1.0"}]}, {"smiles": "CCCCCCCCCCCCCCCCCC(=O)N[C@@H](CCCNC(=N)N)C(=O)NCCCCCCCC.Cl", "note": "[SZ182, N-[(1S)-4-guanidino-1-(octylcarbamoyl)butyl]octadecanamide hydrochloride]", "values": [{"measurement": "Effective Index of IgG2a", "result": "> 1.0"}]}, {"smiles": "CCCCCCCCCCCCCCCCCC(=O)N[C@@H](CCCCN)C(=O)NCCCCCCCCCCCC.Cl", "note": "[SZ185, N-[(1S)-5-amino-1-(dodecylcarbamoyl)pentyl]octadecanamide hydrochloride]", "values": [{"measurement": "Effective Index of IgG1", "result": "> 1.0"}, {"measurement": "Effective Index of IgG2a", "result": "> 1.0"}]}, {"smiles": "CCCCCCCCCCCCCCCCOC(=O)N[C@@H](CCCCN)C(=O)NCCCCCCCCCCCC.Cl", "note": "[SZ189, hexadecyl N-[(1S)-5-amino-1-(dodecylcarbamoyl)pentyl]carbamate hydrochloride]", "values": [{"measurement": "Effective Index of IgG1", "result": "> 1.0"}, {"measurement": "Effective Index of IgG2a", "result": "> 1.0"}]}, {"smiles": "CCCCCCCCCCCCCCCCCC(=O)N[C@H](CCCNC(=N)N)C(=O)NCCCCCCCCCCCC.Cl", "note": "[SZ191, N-[(1R)-1-(dodecylcarbamoyl)-4-guanidino-butyl]octadecanamide hydrochloride]", "values": [{"measurement": "Effective Index of IgG1", "result": "> 1.0"}, {"measurement": "Effective Index of IgG2a", "result": "> 1.0"}]}, {"smiles": "CCCCCCCCCCCCCCCCCC(=O)N[C@@H](CCCCNC(=N)N)C(=O)NCCCCCCCCCCCC.Cl", "note": "[SZ205, N-[(1S)-1-(dodecylcarbamoyl)-5-guanidino-pentyl]octadecanamide hydrochloride]", "values": [{"measurement": "Effective Index of IgG2a", "result": "> 1.0"}]}, {"smiles": "CCCCCCCCCCCCCCCCCC(=O)N[C@@H](CCCCNC(=N)N)C(=O)NCCCCCC.Cl", "note": "[SZ206, N-[(1S)-1-(hexylcarbamoyl)-5-guanidino-pentyl]octadecanamide hydrochloride]", "values": [{"measurement": "Effective Index of IgG2a", "result": "> 1.0"}]}, {"smiles": "CCCCCCCCCCCCNC(=O)[C@H](CCCNC(=N)N)N(CCCCCCC)CCCCCCC", "note": "[SZ207, (2S)-2-(diheptylamino)-N-dodecyl-5-guanidino-pentanamide dihydrochloride]", "values": [{"measurement": "Effective Index of IgG2a", "result": "> 1.0"}]}, {"smiles": "CCCCCCCCCCCCCCCCNC(=O)N[C@@H](CCCCN)C(=O)NCCCCCCCC.Cl", "note": "[SZ213, (2S)-6-amino-2-(hexadecylcarbamoylamino)-N-octyl-hexanamide hydrochloride]", "values": [{"measurement": "Effective Index of IgG2a", "result": "> 1.0"}]}, {"smiles": "CCCCCCCCCCCCCCCCOC(=O)N[C@@H](CCCNC(=N)N)C(=O)NCCCCCCCC.Cl", "note": "[SZ215, hexadecyl N-[(1S)-4-guanidino-1-(octylcarbamoyl)butyl]carbamate hydrochloride]", "values": [{"measurement": "Effective Index of IgG2a", "result": "> 1.0"}]}]}
